No constants are given. Whether binding was seen depends on the method and setting. In cells and extracts the contact can be indirect. These calls come from enrichment with a bait or labelling near it, and not all partners need be listed.
T1: ECT2^WT-mCherry (Arabidopsis thaliana) (UniProt Q9LJE5)
T1 sequence: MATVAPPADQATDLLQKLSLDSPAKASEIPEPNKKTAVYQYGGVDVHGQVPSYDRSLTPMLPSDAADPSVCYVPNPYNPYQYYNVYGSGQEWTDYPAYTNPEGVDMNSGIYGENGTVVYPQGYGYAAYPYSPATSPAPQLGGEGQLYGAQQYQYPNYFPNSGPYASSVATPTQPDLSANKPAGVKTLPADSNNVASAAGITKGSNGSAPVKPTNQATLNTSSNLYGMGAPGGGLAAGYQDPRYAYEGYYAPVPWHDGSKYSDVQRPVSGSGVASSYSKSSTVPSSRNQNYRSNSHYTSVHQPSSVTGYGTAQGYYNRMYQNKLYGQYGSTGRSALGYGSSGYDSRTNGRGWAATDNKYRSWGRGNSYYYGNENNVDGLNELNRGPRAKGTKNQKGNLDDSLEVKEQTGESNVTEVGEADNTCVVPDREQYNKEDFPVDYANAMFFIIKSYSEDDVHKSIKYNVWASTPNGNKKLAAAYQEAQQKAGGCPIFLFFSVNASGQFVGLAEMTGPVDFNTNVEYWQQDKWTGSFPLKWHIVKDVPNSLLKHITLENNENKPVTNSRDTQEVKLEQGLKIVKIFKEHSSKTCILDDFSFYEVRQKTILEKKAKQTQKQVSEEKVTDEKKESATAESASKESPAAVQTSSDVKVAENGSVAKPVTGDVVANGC

Chains of the proteins cited; added tags and fusions are not shown. Lines headed by an entry give the natural chain unless they say otherwise; changes in a name come on top.
UniProt Q9LP53: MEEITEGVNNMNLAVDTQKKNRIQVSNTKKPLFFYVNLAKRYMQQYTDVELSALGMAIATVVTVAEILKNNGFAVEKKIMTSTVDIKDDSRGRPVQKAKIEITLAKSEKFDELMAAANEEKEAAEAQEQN
UniProt A0A1P8AM56: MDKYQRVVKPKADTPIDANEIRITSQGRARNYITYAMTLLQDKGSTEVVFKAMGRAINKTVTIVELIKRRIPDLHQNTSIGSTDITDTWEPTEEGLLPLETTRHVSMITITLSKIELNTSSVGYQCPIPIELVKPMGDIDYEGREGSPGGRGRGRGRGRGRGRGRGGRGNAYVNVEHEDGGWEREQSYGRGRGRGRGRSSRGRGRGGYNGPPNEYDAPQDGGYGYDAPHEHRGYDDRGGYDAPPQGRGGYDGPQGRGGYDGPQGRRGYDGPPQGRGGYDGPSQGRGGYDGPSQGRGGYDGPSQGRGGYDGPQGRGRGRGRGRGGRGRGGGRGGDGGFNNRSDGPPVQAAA
UniProt F4HWS5: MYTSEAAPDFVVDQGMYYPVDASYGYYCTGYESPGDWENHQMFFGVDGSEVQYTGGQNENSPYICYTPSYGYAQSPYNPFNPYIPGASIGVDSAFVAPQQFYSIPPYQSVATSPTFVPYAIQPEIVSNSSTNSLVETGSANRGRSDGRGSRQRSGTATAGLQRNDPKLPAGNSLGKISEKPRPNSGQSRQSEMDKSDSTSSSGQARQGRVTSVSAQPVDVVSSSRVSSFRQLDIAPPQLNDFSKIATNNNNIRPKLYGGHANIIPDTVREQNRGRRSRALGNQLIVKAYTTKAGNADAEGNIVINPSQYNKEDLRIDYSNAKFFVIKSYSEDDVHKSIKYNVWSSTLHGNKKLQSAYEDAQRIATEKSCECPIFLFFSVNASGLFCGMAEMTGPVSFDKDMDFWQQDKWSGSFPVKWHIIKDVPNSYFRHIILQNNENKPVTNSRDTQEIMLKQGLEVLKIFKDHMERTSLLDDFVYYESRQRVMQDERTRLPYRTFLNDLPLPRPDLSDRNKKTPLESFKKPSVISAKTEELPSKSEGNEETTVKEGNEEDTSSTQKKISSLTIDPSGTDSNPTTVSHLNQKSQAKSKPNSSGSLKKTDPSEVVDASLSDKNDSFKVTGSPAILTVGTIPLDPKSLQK

B1: ECT1 (protein, UniProt Q3MK94 1-428)
chain: MAGAASSDRLVTSFPLLDTADLFQDLSLGSDANEVPMNFTKGSFQHPYGHAPYGASSHGSERRPNMNAGNLLNGGDSIGSYPWGYIPANYPSGGYPDPRFGYDRNSNHSSFSHLMNPHSSQEVPSFDQLGYNDHLYSNHGLYGLYGNVIDSGHAYGTFGYDSWKLGRGWYPVDGYRKTRSFNHGRGYSDEKADRLNELCRGPRSSDFKNPQVLNSSMLDAMKQDVSAVDLQRYNGENFPESFVKAKFFVIKSYSEDDVHNCIKYGAWSSTPTGNKKLNAAYYEAKENSQECPVYLLFSVNASGQFVGLAEMVGPVDFNKTMEYWQQDKWIGCFPVKWHIIKDIPNSLLRHITLANNENKPVTNSRDTQEVNLEHGTKIIKIFKEYMSKTCILDDYKFYETRQKIIRDKKIKQKKQALDGASGETINLS
B2: ECT2 (protein, UniProt Q9LJE5 1-667)
chain: T1 sequence
B3: ECT3 (protein, UniProt F4K1Z0 1-495)
chain: MANPDHVSDVLHNLSIDPTTKALAPDSETKLQGAYGGNGNDFLLNDELVEATKIGKPSLLSKDGGVTKDKGSNLKKLGYQSAAYNAKGSYGKGAYAYGYYPPAYQYPRHGYTGSYASGKTNLQYQYLTQQGRSAGNGQSYGGYMDNIYSNYGMCGPYTNGYGYGSYGYDSWKYMPNWYAVNNTYKPRNGYHGYGKENIEGLNEMNRGPRAKGFNSQDGSKVMAVSLKEQRVTETEKLSEDVSLLDPKDYNKIDFPETYTEAKFYVIKSYSEDDIHKSIKYSVWSSTPNGNKKLDASYNEAKQKSDGCPVFLLFSVNTSGQFVGLAEMVGPVDFNKTVEYWQQDKWIGCFPVKWHFVKDIPNSSLRHITLENNENKPVTNSRDTQEVKLEQGIKVIKIFKDHASKTCILDDFEFYENRQKIIQERKSKHLQIKKQTLVANADKGVMSKINLVKPQESTTASEDAAALGVAAEVTKESKVVKETELPVEKNAVATAC
B4: ECT4 (protein, UniProt A0A1P8AS03 1-605)
chain: MSTVAPPADQAADVLKKLSLDSKSRTLEIPEPTKKTGVYQYGAMDSNGQVPSFDRSLSPMLPSDALDPSVFYVPNVYQQPYYYGYGSDYTGYTNSESVDMTSGAYGENASLVYPQGYGYAAFPYSPATSPAPQLGGDGQLYGAQQYQYPFPLTASSGPFASSVPASTQSKLSTNKAANSASAGIPKGMNGSAPVKPLNQSALYGNSALGGGLAAGYQDPRYSYDGFYTPVSWHDGSNFSDVQRSVSGSGVASSYSKANNNVPATRNQNSSSNSHYTSMYQPASMTGYAAQGYYDRVSPNKSYGQYGSTVRSGMGYGSSGYGSRTNERGWLNTDNKYRSRGRGNSYFYGNENIDGLNELNRGPRAKGTKATEEVSSEEVKKQTFDESNTEETVTCVLPDREECNRDDFPVEYKDAKFFIIKSYSEDDVHKSIKYNVWASTPNGNKKLDAAYQEAQQKSSGCPVFLFFSVNASGQFIGLAEMKGPVDFNKNIEYWQQDKWTGSFPLKWHILKDVPNSLLKHITLEYNENKPVTNSRDTQEVKLEQGLKVVKIFKEHNSKTCILDDFSFYEARQKTILEKKAKQQQSQKQVWEGKTNDEKPGTVDSTM

How the values were obtained:
[1] = biological target: T1, ECT2^WT-mCherry (Arabidopsis thaliana); assay: affinity purification with mass spectrometry; comparative IP-MS of ECT2-mCherry variants (RFP-trap) from stable transgenic lines in the te234 background; immunopurifications in the presence of RNaseA; biological triplicates
[2] = biological target: ALBA4-GFP (Arabidopsis thaliana); assay: affinity purification with mass spectrometry; comparative IP-MS of ALBA4-GFP against free GFP; GFP-Trap beads, total lysates of 7-day-old seedlings, IP buffer 50 mM Tris-HCl pH 7.5, 150 mM NaCl, 10% glycerol, 0.1% Triton-X100, 2.5 h at 4 °C; biological triplicates

Row | Molecule | binding [1] | binding [2]
1 | ALBA1 (from UniProt Q9LP53) | binds | –
2 | ALBA2 | binds | –
3 | ALBA4 (from UniProt A0A1P8AM56) | binds | –
4 | ALBA5 | binds | –
5 | ECT7 (from UniProt F4HWS5) | – | binds
6 | B1 | – | binds
7 | B2 | – | binds
8 | B3 | – | binds
9 | B4 | – | binds
